PubChem BioAssay AID504784 | Drosophila RNAi Screening Center, 2011
Assay: 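Genome-wide knock-down for genes giving too much or too little stored lipid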 (primary screen). System: Drosophila Kc167 embryonic cells. Reagent: long dsRNA against Drosophila genes, about 250 ng dsRNA per well. Time to read-out: 4 days. Challenge: cells fed 400 µM oleic acid bound to BSA. Measured: 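Cells imaged and segmented; ratio of lipid droplet area to nuclear area, log-transformed, then normalised as a B-score over the screen; higher means more stored lipid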. Scale: droplet/nuclear area B-score: higher = more stored lipid (overstorage).
The deposit covers about 17,000 reagents; this is an unselected part of those that have a named target and a result. 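Each column is one replicate's B-score; the combined score over replicates was not deposited, so single values may mislead.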 Not all columns of the deposit are shown. Reagent sequences are not shown.

droplet/nuclear area B-score, replicate 1, by target gene and reagent
MED10 (Mediator complex subunit 10): DRSC10474 -0.00065
Su(P) (Suppressor of ref(2)P sterility): DRSC11291 3.1
Adk3 (Adenosine kinase 3): DRSC05917 -0.364
CG8547: DRSC07211 -0.27
CG31174: DRSC13518 0.00733
Atg16 (Autophagy-related 16): DRSC15052 -1.1; DRSC15300 -1.78; DRSC15375 -1.34
Vps16B (Vacuolar protein sorting 16B): DRSC15304 0.12
RpS3 (Ribosomal protein S3): DRSC16838 -1.92
Jon65Aiv (Jonah 65Aiv): DRSC10644 -0.885
rept (reptin): DRSC11388 2.49
Fkbp14 (FK506-binding protein 14): DRSC04615 0.215
mtg (mind the gap): DRSC16256 2.23
CG17687: DRSC10279 1.13
egh (egghead): DRSC18771 0.0868
CG18635: DRSC06780 0.97
lectin-46Ca: DRSC06612 -0.0637
CG10584: DRSC11624 -1.63
bnb (bangles and beads): DRSC20314 -0.535
Uba1 (Ubiquitin activating enzyme 1): DRSC07567 -2.5
eIF2gamma (eukaryotic translation initiation factor 2 subunit gamma): DRSC13081 4.54; DRSC16873 -0.199
Mettl2 (Methyltransferase like 2): DRSC08398 -0.117
Tbp (TATA binding protein): DRSC04662 2.92; DRSC23111 0.0467
mthl1 (methuselah-like 1): DRSC19905 -1.94
sty (sprouty): DRSC08737 0.202; DRSC22994 1.04
nkt (noktochor): DRSC10144 -0.437
CG10680: DRSC02093 2.17
CG6652: DRSC10686 -1.58
cDIP (Common Dpr-interacting protein): DRSC14267 -0.909
ppk3 (pickpocket 3): DRSC04275 0.0246
CG14853: DRSC14977 1.61; DRSC21528 -0.48
ppk28 (pickpocket 28): DRSC19919 0.00863
CG1486: DRSC20508 -0.00184
schlank: DRSC18102 -1.09; DRSC18313 0.672
Ufc1 (Ubiquitin-fold modifier conjugating enzyme 1): DRSC07156 -0.406
CG31233: DRSC15888 -0.0907
CG18545: DRSC15343 0.0127
obst-G (obstructor-G): DRSC11103 0.0184
CG45002: DRSC20144 -2.31
CG14756: DRSC06491 -0.0568
wdp (windpipe): DRSC04367 -1.01
Taf8 (TBP-associated factor 8): DRSC20363 -0.403
CG6426: DRSC06985 0.569
CG10321: DRSC04061 1.25
Grx3 (Glutaredoxin 3): DRSC02966 0.506
CG1077: DRSC12146 0.0791
squ (squash): DRSC01549 -0.177
Smug: DRSC15762 0.164
CG34248: DRSC09426 -0.0334
sug (sugarbabe): DRSC06855 0.329

Copied from the list:
For “droplet/nuclear area B-score, replicate 1”, Jon65Aiv (Jonah 65Aiv) [DRSC10644] is entered as -0.885
Result for Taf8 (TBP-associated factor 8) [DRSC20363] under “droplet/nuclear area B-score, replicate 1”: -0.403
Entry of CG14853 [DRSC21528] in “droplet/nuclear area B-score, replicate 1”: -0.48
Entry for sty (sprouty) [DRSC08737] in “droplet/nuclear area B-score, replicate 1”: 0.202
CG31174 [DRSC13518], droplet/nuclear area B-score, replicate 1 → 0.00733
RpS3 (Ribosomal protein S3) [DRSC16838], droplet/nuclear area B-score, replicate 1 → -1.92
